Source: US20020019040A1 (LEADD B V, published 2002)
These are yes or no findings as the source states them, for the method shown. Binding seen in cells or lysates may run through a third protein. Some binding calls cover weakened binding; strength is not graded here. For some of these results: Tags and fused reporters may be left off the sequences shown.

Chains of the proteins cited; added tags and fusions are not shown. Lines headed by an entry give the natural chain unless they say otherwise; changes in a name come on top.
UniProt Q9NQ31: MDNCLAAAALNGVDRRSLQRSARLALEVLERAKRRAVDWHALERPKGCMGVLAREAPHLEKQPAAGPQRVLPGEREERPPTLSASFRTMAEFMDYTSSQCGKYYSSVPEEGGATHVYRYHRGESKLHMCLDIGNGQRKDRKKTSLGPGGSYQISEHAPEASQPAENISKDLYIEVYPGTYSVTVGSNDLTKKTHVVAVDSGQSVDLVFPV

T1: Apoptin (chicken anemia virus) (UniProt Q99152)
T1 sequence (looked up): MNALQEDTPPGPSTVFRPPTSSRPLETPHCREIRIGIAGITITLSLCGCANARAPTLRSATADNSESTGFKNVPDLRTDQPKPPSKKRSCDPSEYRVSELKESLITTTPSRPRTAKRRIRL

T2: AAP-3 (full-length sequence, myc-tagged) (human) (UniProt Q9Y3D0)
T2 sequence (looked up): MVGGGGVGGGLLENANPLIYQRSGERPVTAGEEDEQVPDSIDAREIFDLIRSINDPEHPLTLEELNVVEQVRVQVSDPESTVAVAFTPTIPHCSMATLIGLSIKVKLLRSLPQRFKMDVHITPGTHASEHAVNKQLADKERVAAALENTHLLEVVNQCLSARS


How the values were obtained:
[1] = target: T1, Apoptin (chicken anemia virus); experiment: co-immunoprecipitation from co-transfected Cos cells
[2] = target: T1, Apoptin (chicken anemia virus); experiment: co-immunoprecipitation with 9E10 from co-transfected Cos cells, Western blot
[3] = target: T1, Apoptin (chicken anemia virus); experiment: co-immunoprecipitation with polyclonal anti-Apoptin antibody from co-transfected Cos cells, Western blot
[4] = target: T2, AAP-3 (full-length sequence, myc-tagged) (human); experiment: co-immunoprecipitation after co-transfection, IP with AAP antibody, Western blot with 9E10

| binding [4] | Molecule | binding [1] | binding [2] | binding [3] |
| --- | --- | --- | --- | --- |
|  | Myc-tagged AAP-5 protein (partial clone, plasmid pMT2SM-AAP-5) (from UniProt Q9NQ31 89-210) | binds | binds | binds |
| binds | Myc-tagged AAP-5 protein (partial clone, plasmid pMT2SM-AAP-5) (protein) EQKLISEEDLPMAEFMDYTSSQCGKYYSSVPEEGGATHVYRYHRGESKLHMCLDIGNGQRKDRKKTSLGPGGSYQISEHAPEASQPAENISKDLYIEVYPGTYSVTVGSNDLTKKTHVVAVDSGQSVDLVFPV |  |  |  |
